Measured values taken from PMC3973595.
These are yes or no findings as the source states them, for the method shown. Binding can be weak; no strength is given.

How the values were obtained:
[1] = molecular target: T1, monomeric C-reactive protein (mCRP) (human) (UniProt P02741); assay: cell adhesion assay; mCRP or pCRP coated on wells, blocked with BSA; CHO cells expressing integrins (10^5 cells/well) for 1 h at 37°C in Tyrode-HEPES buffer with 1 mM MgCl2; bound cells quantified by endogenous phosphatase activity; in some panels with antagonists (mAb 7E3, AIIB2 or SG73 10 μg/ml, cyclic RGDfV 10 μM, BIO1211 1 μM); only the target purified
T1 sequence: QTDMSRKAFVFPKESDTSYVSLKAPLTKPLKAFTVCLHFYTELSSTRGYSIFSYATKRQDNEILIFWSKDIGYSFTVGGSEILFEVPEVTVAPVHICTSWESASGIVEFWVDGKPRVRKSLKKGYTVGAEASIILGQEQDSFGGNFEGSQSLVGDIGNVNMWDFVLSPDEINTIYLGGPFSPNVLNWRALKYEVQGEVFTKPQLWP

[2] = molecular target: T1, monomeric C-reactive protein (mCRP) (human); assay: cell adhesion assay; mCRP coated at 50 μg/ml; β3-CHO cells for 1 h at 37°C in Tyrode-HEPES buffer with 2 mM cations (Mn2+, Mg2+, Ca2+) or EDTA; only the target purified
[3] = molecular target: T1, monomeric C-reactive protein (mCRP) (human); assay: ELISA; mCRP or pCRP coated on wells, blocked with BSA; soluble αvβ3 in Tyrode-HEPES buffer with 1 mM MgCl2 for 2 h (legend: 37°C; methods: room temperature); bound integrin detected with HRP-conjugated anti-His tag IgG; both purified

| binding [1] | binding [2] | binding [3] | Substance |
| --- | --- | --- | --- |
| binds | – | – | integrin αvβ1-3-1 on β1-3-1-CHO cells (β1-3-1 mutant) (receptor) |
| binds | binds | – | integrin αvβ3 on β3-CHO cells (hamster αv/human β3 chimera) (receptor) |
| – | – | binds | recombinant soluble integrin αvβ3 (complex) |
